Measurements published in paper PMC8158924.
No constants are given. Whether binding was seen depends on the method and setting. Binding seen in cells or lysates may run through a third protein. Binding calls can cover weak binding; strength is not graded here.

By UniProt entry, the sequences of proteins in these tests, tags left out. Where a name states a change or a piece, a line headed by the entry shows the natural chain unless it says otherwise. Chains listed by the source or under a name are the forms on record and can include a tag or linker.
myc-tagged FMNL2 C-terminal fragment (aa 521-1092) (Q96PY5-3, form named): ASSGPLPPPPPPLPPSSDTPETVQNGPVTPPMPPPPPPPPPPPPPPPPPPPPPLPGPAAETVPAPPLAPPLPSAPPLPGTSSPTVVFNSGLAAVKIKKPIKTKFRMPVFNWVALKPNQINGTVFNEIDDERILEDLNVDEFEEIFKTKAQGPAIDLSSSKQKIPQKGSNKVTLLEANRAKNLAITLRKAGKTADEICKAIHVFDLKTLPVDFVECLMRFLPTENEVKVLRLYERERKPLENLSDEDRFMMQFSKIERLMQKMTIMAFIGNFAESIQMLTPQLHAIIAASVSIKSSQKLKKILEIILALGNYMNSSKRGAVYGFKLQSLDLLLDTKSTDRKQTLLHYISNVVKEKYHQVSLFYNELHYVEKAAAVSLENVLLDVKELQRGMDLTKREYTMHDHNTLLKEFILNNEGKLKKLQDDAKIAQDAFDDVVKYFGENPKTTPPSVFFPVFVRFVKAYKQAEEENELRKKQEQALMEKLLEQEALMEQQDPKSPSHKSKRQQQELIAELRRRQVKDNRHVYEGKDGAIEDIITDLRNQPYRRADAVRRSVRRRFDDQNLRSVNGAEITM

Molecular target: flag-tagged N-terminal FMNL2 (aa 23-484) with an alanine mutation at position L136 (human) (UniProt Q96PY5)
Experiment: co-IP; HEK-293T cells co-transfected; lysis in Tris 20 mM, NaCl 150 mM, EDTA 2 mM, Triton-X-100 0,1% with protease inhibitors; flag-NT precipitated on Flag-M2 agarose beads, 1 hour at 4°C, three washes; immunoblot of the co-expressed partner (myc-CT or GFP-Cdc42)

binding: binds
Substance: myc-tagged FMNL2 C-terminal fragment (aa 521-1092) (from UniProt Q96PY5-3 521-1092) (domain or fragment)
